The target in the experiment is ICAM-1 (UniProt P13597). In words: cell adhesion assay; macrophages on ICAM-1 coated substrates, with Ca2+Mg2+, Mn2+, LA1 or LA1 + neutralizing anti-CD11b antibody; only the target purified.

The chains behind the UniProt entries cited, without tags or fusion partners. Where a name states a change or a piece, a line headed by the entry shows the natural chain unless it says otherwise. Residues count along the entry.
UniProt P13597, residues 28-485: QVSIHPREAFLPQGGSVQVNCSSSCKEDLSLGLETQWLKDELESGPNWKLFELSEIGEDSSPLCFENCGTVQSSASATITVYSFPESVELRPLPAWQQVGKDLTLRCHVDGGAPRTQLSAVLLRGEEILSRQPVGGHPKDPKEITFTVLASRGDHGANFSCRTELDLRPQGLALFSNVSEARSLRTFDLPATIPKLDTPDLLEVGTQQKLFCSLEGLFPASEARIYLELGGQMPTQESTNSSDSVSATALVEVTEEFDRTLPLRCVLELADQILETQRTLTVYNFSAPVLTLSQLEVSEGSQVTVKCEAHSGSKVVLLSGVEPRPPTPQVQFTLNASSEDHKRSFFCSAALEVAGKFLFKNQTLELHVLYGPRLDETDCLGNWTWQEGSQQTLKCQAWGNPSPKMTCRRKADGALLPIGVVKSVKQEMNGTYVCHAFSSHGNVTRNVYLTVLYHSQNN
UniProt P05555: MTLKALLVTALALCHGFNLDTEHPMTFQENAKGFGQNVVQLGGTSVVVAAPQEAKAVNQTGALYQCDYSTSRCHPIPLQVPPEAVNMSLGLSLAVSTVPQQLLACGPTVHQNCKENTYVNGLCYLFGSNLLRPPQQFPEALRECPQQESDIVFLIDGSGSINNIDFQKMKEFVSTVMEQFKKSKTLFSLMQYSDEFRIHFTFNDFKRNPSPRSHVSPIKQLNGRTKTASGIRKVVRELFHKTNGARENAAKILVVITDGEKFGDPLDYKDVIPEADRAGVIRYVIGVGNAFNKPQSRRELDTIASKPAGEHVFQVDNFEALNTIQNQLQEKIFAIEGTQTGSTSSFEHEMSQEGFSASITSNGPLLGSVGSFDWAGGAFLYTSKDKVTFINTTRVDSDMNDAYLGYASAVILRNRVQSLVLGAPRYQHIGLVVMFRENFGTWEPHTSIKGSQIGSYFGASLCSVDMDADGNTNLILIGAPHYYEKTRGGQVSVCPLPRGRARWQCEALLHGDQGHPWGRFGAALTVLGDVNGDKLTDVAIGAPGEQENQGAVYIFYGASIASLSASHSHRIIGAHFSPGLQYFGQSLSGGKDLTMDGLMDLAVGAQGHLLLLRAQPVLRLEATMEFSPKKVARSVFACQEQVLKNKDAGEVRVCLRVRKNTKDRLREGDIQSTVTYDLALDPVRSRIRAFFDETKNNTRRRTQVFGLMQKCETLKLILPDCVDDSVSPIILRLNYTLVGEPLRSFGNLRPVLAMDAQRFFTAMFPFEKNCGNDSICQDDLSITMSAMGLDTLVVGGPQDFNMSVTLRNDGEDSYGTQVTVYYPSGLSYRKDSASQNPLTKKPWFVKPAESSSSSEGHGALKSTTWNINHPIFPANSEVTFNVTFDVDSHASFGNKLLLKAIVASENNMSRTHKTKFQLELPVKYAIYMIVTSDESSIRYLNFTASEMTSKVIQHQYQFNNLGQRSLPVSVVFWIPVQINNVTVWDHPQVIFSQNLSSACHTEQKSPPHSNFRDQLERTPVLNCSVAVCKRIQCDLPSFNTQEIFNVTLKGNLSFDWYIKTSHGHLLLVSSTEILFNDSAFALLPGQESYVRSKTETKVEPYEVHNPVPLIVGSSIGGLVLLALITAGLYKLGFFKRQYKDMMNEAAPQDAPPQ

No constants are given. Whether binding was seen depends on the method and setting. Some entries that bind do so weakly or less than the wild type.

As for “integrin CD11b/CD18 (from UniProt P05555 17-1153; P11835 24-771) (complex)”, the binding result is listed as “binds”.

(Values after publication PMC6300665.)
